Details: PAMPA

Row | Structure (SMILES) | Prediction of CNS penetration
1 | CN1C(=O)CN=C(c2ccccc2)c2cc(Cl)ccc21 [Diazepam] | High (key: High: ‘CNS+’ (prediction of high BBB permeation); Pe (10^−6 cm s^−1) > 4.39; No: ‘CNS−’ (prediction of low BBB permeation); Pe (10^−6 cm s^−1) < 1.78)
2 | CC(C)NCC(O)COc1ccc(CC(N)=O)cc1 (centres unmarked) [Atenolol] | No (key: High: ‘CNS+’ (prediction of high BBB permeation); Pe (10^−6 cm s^−1) > 4.39; No: ‘CNS−’ (prediction of low BBB permeation); Pe (10^−6 cm s^−1) < 1.78)
